Source: article PMC5155146, “Thioredoxin-interacting protein regulates haematopoietic stem cell ageing and rejuvenation by inhibiting p38 kinase activity” (Nature Communications, 2016)
Results are given in words; binding and its absence hold for the method and conditions named. Binding seen in cells or lysates may run through a third protein. Some binding calls cover weakened binding; strength is not graded here.

The chains behind the UniProt entries cited, without tags or fusion partners. Where a name states a change or a piece, a line headed by the entry shows the natural chain unless it says otherwise. A line that says so, or that is headed by a name, gives the form on record, which may keep a tag or linker.
UniProt Q16539: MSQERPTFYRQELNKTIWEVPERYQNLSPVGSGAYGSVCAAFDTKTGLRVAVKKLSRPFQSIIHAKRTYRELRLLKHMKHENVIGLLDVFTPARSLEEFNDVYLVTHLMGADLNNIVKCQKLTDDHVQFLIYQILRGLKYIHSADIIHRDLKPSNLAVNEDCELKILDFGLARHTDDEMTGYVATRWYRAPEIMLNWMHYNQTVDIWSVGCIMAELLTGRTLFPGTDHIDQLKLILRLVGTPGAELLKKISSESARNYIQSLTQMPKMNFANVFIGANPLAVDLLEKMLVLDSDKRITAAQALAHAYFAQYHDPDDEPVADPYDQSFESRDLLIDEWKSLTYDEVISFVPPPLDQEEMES
p38AF, kinase-dead dominant-negative mutant of p38alpha (Q16539, form named): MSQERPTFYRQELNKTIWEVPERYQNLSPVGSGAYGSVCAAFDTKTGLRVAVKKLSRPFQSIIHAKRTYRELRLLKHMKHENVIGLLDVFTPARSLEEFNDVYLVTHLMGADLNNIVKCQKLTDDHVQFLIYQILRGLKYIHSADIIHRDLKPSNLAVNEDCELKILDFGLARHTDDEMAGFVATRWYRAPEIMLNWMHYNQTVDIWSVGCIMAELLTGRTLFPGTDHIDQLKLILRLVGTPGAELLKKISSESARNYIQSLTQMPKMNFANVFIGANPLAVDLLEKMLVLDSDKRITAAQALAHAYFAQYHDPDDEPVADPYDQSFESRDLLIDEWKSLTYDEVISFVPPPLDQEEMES

target: T1, human TXNIP overexpressed in 293T cells (human) (UniProt Q9H3M7); assay: pull-down; GST pull-down from 293T cells overexpressing TXNIP and p38 (wild type or mutants); also with H2O2 or SB203580 treatment
T1 sequence: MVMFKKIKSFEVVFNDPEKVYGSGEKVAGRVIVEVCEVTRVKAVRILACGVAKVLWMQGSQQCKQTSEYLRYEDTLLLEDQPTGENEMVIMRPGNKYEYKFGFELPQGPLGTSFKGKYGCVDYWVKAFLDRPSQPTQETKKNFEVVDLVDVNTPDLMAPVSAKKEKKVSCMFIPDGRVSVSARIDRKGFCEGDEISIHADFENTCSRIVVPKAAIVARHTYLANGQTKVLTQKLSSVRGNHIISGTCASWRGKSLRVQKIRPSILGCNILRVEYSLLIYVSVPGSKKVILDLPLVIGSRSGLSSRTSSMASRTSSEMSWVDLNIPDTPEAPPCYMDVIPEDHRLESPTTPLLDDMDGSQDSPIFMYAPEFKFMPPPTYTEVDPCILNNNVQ

Row | Substance | binding
1 | human p38alpha overexpressed in 293T cells (from UniProt Q16539 1-360) (enzyme) | binds
2 | p38(E160A/D161A) (from UniProt Q16539 1-360) (enzyme) | binds
3 | p38AF, kinase-dead dominant-negative mutant of p38alpha (from UniProt Q16539 1-360) (enzyme) | binds

The next lines start with the values.

Row | binding | Substance
4 | binds | p38(D313A/D315A/D316A) (from UniProt Q16539 1-360) (enzyme)
5 | binds | p38(I116A) (from UniProt Q16539 1-360) (enzyme)
